In paper PMC7515736:
For at least one entry, the source does not settle the construct or the ends of the probe. Weaker means in comparison with the reference protein, sequence or condition of that experiment.

Tested on: SEP3 (SEPALLATA3) + AG (AGAMOUS)
Assay: EMSA
Details: tetramer, almost no tetramers bound; EMSA as in the authors' ref. 20 (buffer, salt, pH, temperature not given); Cy5 probes; unpurified wheat germ TnT proteins; protein translated in vitro; protein details: C-terminal 3xFLAG,C-terminal 5xMyc; label: Cy5

Row | Sequence | binding result
1 | GGTAAGAGAAACATAGAAACCTTCCATGTTTGGCAATTTCATCTTGGAAGTCAGCTTGATTCACTCTCTCTTGTCTTCTTTGTGCATCACAAGAACAACAA (double strand) [KNU +5 probe (101 bp)] | binds more weakly
2 | AGAGGGTAAGAGAAACATAGAAACCTTCCATGTTTGGCAATTTCATCTTGGAACTTACTCTCTCTTGTCTTCTTTGTGCATCACAAGAACAACAAA (double strand) [KNU -5 (96 bp)] | binds more weakly
3 | AGAGAAACATAGAAACCTTCCATGTTTGGCAATTTCATCTTGGAAGTCAGCTTGATTCACTCTCTCTTGTCTTCTTTGTGCATCACAAGAACAACA (double strand) [KNU +5 (96 bp)] | binds more weakly
4 | GGTAAGAGAAACATAGAAACCTTCCATGTTTGGCAATTTCATCTTGGAACTTACTCTCTCTTGTCTTCTTTGTGCATCACAAGAACAACAA (double strand) [KNU -5 probe (91 bp)] | binds more weakly
